Earlier results in patent US20190276439A1, “METHOD OF TREATING SOLID TUMORS” (priority 2016, published 2019).
Some of these results come from one statement about several compounds together.

Test system: NET
Conditions: phase 3 trials; cited from earlier work

For CO[C@H]1C[C@@H]2CC[C@@H](C)[C@@](O)(O2)C(=O)C(=O)N2CCCC[C@H]2C(=O)O[C@H]([C@H](C)C[C@@H]2CC[C@@H](OCCO)[C@H](OC)C2)CC(=O)[C@H](C)/C=C(\C)[C@@H](O)[C@@H](OC)C(=O)[C@H](C)C[C@H](C)/C=C/C=C/C=C/1C [everolimus], the ORRs is listed as under 10%.
